# These are yes or no findings as the source states them, for the method shown. Binding seen in cells or lysates may run through a third protein. Binding calls can cover weak binding; strength is not graded here.
# Molecular target: T1, Glycerol-3-phosphate acyltransferase 3 (human (endogenous in HCT-116)) (UniProt Q53EU6)
# T1 sequence: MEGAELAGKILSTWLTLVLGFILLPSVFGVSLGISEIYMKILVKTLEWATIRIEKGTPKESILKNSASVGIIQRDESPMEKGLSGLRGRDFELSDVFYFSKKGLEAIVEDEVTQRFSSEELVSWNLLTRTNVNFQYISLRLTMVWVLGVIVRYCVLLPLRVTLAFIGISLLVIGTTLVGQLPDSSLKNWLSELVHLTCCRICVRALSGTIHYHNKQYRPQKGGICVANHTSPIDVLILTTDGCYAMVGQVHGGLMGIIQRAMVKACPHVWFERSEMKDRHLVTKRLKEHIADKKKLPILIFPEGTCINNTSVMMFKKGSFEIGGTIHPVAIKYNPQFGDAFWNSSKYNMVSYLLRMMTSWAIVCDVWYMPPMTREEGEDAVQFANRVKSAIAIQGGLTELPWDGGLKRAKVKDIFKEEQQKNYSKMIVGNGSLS
# Test: co-IP; endogenous proteins; cells lysed with NP-40 lysis buffer; Protein A&G magnetic beads; anti-rabbit and mouse IgG as negative controls; immunoblot
substance,measurement,value
SIRT3 (human (endogenous in HCT-116)) (enzyme),binding,binds

# From PMC10857777
